# Where a name gives a salt, the structure may show the parent alone. The list shows a part of the results. Rule as the data show it: active = 2.5 or more and inactive = the rest. Most values lie within the scatter of the assay; repeated measurements hardly agree.
# System: Lgr5 (MarsCy1-Lgr5-EGFP, U2OS)
# Assay: cell-surface Lgr5 expression (SCi1 fluorescence, background-subtracted) relative to WT control (fold of WT control); higher = more Lgr5 at the plasma membrane
# Conditions: U2OS MarsCy1-Lgr5-EGFP stable; treatment time: overnight; library: Prestwick; 20 µM
row,SMILES,cell-surface Lgr5 expression
1,CN1C(C(=O)Nc2ccccn2)=C(O)c2sccc2S1(=O)=O [Tenoxicam],active: 2.73
2,Cc1ncc([N+](=O)[O-])n1CC(O)CCl (stereo not drawn) [Ornidazole],inactive: 1.48
3,C[C@]12CC[C@H]3C(=CCc4cc(O)ccc43)[C@@H]1CCC2=O [Equilin],inactive: 1.91
4,C=C[C@H]1CN2CC[C@H]1C[C@@H]2[C@@H](O)c1ccnc2ccc(OC)cc12 [Quinidine hydrochloride monohydrate],inactive: 1.59
5,O=C(CCCN1CCC(O)(c2ccc(Br)cc2)CC1)c1ccc(F)cc1 [Bromperidol],inactive: 2.23
6,CO[C@@]1(NC(=O)Cc2cccs2)C(=O)N2C(C(=O)O)=C(COC(N)=O)CS[C@@H]21 [Cefoxitin sodium salt],inactive: 1.59
7,CC(=O)c1ccc2c(c1)N(CCCN1CCC(CCO)CC1)c1ccccc1S2 [Piperacetazine],inactive: 1.02
8,CCCCC(CC)CN1CN(CC(CC)CCCC)CC(C)(N)C1 (stereo not drawn) [Hexetidine],inactive: 2.06
9,CCN(CC)CCOC(=O)C(c1ccccc1)C1CCCCC1 (stereo not drawn) [Drofenine hydrochloride],active: 2.74
10,COc1cc(Cc2cnc(N)nc2N)cc(OC)c1OC [Trimethoprim],active: 2.5
11,CCCCOC(=O)c1ccc(N)cc1 [Butamben],inactive: 1.7
12,O=C1NCN(c2ccccc2)C12CCN(CCCC(c1ccc(F)cc1)c1ccc(F)cc1)CC2 [Fluspirilen],inactive: 1.68
13,CC(C)(C)C(=O)OCOC(=O)[C@@H]1N2C(=O)[C@@H](NC(=O)[C@H](N)c3ccccc3)[C@H]2SC1(C)C [Pivampicillin],inactive: 0.643
14,N=C(N)NC(=O)c1nc(Cl)c(N)nc1N [Amiloride hydrochloride dihydrate],inactive: 1.83
15,NS(=O)(=O)c1cc(C(=O)O)c(NCc2ccco2)cc1Cl [Furosemide],inactive: 1.95
16,Cc1cc(C2CCCCC2)n(O)c(=O)c1 [Ciclopirox ethanolamine],inactive: 2.17
17,NS(=O)(=O)c1cc2c(cc1Cl)N=CNS2(=O)=O [Chlorothiazide],inactive: 1.51
18,CN[C@H](CC(C)C)C(=O)N[C@H]1C(=O)N[C@@H](CC(N)=O)C(=O)N[C@H]2C(=O)N[C@H]3C(=O)N[C@H](C(=O)N[C@H](C(=O)O)c4cc(O)cc(O)c4-c4cc3ccc4O)[C@H](O)c3ccc(c(Cl)c3)Oc3cc2cc(c3O[C@@H]2O[C@H](CO)[C@@H](O)[C@H](O)[C@H]2O[C@H]2C[C@](C)(N)[C@H](O)[C@H](C)O2)Oc2ccc(cc2Cl)[C@H]1O [Vancomycin hydrochloride],inactive: 1.8
19,NC(=O)c1ncn([C@@H]2O[C@H](CO)[C@@H](O)[C@H]2O)n1 [Ribavirin],inactive: 1.41
20,CCOC(=O)[C@H](CCc1ccccc1)N[C@@H](C)C(=O)N1[C@H](C(=O)O)C[C@@H]2CCC[C@@H]21 [Ramipril],inactive: 1.06
21,CCOc1ccc2c(c1)C(C)=CC(C)(C)N2 [Ethoxyquin],inactive: 2.07
22,CC(C)COCC(CN(Cc1ccccc1)c1ccccc1)N1CCCC1 (stereo not drawn) [Bepridil hydrochloride],inactive: 1.91

# Reformatted tab-delimited: part of the list above
row	SMILES	cell-surface Lgr5 expression
6	CO[C@@]1(NC(=O)Cc2cccs2)C(=O)N2C(C(=O)O)=C(COC(N)=O)CS[C@@H]21 [Cefoxitin sodium salt]	inactive: 1.59
12	O=C1NCN(c2ccccc2)C12CCN(CCCC(c1ccc(F)cc1)c1ccc(F)cc1)CC2 [Fluspirilen]	inactive: 1.68

# Later entries:

row,SMILES,cell-surface Lgr5 expression
1,CCCCNC(=O)NS(=O)(=O)c1ccc(C)cc1 [Tolbutamide],inactive: 0.785
2,O=C(O)c1cc(-c2ccc(F)cc2F)ccc1O [Diflunisal],inactive: 1.01
3,CC(=O)[C@H]1CC[C@H]2[C@@H]3C[C@H](C)C4=CC(=O)CC[C@]4(C)[C@H]3[C@@H](O)C[C@]12C [Medrysone],active: 3.7
4,Cn1c(-c2ccc3c(c2)OCO3)cc(=O)c2ccccc21 [Graveoline],inactive: 1.97
5,CCn1cc(C(=O)O)c(=O)c2cnc(N3CCCC3)nc21 [Piromidic acid],inactive: 1.51
6,CNCCC(Oc1ccc(C(F)(F)F)cc1)c1ccccc1 (stereo not drawn) [Fluoxetine hydrochloride],active: 2.65
7,Cc1nc2n(c(=O)c1CCN1CCC(c3noc4cc(F)ccc34)CC1)CCCC2 [Risperidone],inactive: 0.851
8,CCS(=O)(=O)CCn1c([N+](=O)[O-])cnc1C [Tinidazole],inactive: 2.34
9,CCCCOc1cc(C(=O)NCCN(CC)CC)c2ccccc2n1 [Dibucaine],inactive: 1.47
10,CCC1=C(C)CN(C(=O)NCCc2ccc(S(=O)(=O)NC(=O)N[C@H]3CC[C@H](C)CC3)cc2)C1=O [Glimepiride],inactive: 2.43
11,COc1ccc2cc1Oc1ccc(cc1)C[C@H]1c3cc(c(OC)cc3CCN1C)Oc1c(OC)c(OC)cc3c1[C@H](C2)N(C)CC3 [Tetrandrine],inactive: 1.81
12,COc1ccc2cc([C@@H](C)C(=O)O)ccc2c1 [(R) -Naproxen sodium salt],active: 3.64
13,Nc1nc(=O)c2c([nH]1)NC[C@@H](CNc1ccc(C(=O)N[C@@H](CCC(=O)O)C(=O)O)cc1)N2C=O [Folinic acid calcium salt],inactive: 1.11
14,CC(C)NCC(O)COc1cccc2ccccc12 (stereo not drawn) [Propranolol hydrochloride],inactive: 1.56
15,CC1(C)NC(=O)N(c2ccc([N+](=O)[O-])c(C(F)(F)F)c2)C1=O [Nilutamide],active: 3
16,CCCCC(CC)CNC(=N)NC(=N)NCCCCCCNC(=N)NC(=N)NCC(CC)CCCC (stereo not drawn) [Alexidine dihydrochloride],inactive: 1.85
17,COC(=O)[C@@H]1[C@H]2C[C@H]3c4[nH]c5ccccc5c4CCN3C[C@@H]2CC[C@@H]1O [Yohimbine hydrochloride],active: 3.7
18,O=C(O)CCC(=O)Nc1ccc(S(=O)(=O)Nc2nccs2)cc1 [Succinylsulfathiazole],inactive: 1.76
19,COc1cnc(NS(=O)(=O)c2ccc(N)cc2)nc1 [Sulfameter],inactive: 1.31
20,Cc1cccc(CN2CCN(C(c3ccccc3)c3ccc(Cl)cc3)CC2)c1 (stereo not drawn) [Meclozine dihydrochloride],inactive: 1.03
21,CNCCC(Oc1ccccc1OC)c1ccccc1 (stereo not drawn) [Nisoxetine hydrochloride],inactive: 1.66

# Reference: the supplement of paper PMC4683952
